# From the supplement of paper PMC3334620
# The full ranking holds about 33,000 sequences; the median of “E-score (-0.5 to 0.5)” is about -0.016, and the highest 2% start at about 0.3. Some of the results follow.
# Molecular target: T1, Yer184c (UniProt P39961)
# T1 sequence: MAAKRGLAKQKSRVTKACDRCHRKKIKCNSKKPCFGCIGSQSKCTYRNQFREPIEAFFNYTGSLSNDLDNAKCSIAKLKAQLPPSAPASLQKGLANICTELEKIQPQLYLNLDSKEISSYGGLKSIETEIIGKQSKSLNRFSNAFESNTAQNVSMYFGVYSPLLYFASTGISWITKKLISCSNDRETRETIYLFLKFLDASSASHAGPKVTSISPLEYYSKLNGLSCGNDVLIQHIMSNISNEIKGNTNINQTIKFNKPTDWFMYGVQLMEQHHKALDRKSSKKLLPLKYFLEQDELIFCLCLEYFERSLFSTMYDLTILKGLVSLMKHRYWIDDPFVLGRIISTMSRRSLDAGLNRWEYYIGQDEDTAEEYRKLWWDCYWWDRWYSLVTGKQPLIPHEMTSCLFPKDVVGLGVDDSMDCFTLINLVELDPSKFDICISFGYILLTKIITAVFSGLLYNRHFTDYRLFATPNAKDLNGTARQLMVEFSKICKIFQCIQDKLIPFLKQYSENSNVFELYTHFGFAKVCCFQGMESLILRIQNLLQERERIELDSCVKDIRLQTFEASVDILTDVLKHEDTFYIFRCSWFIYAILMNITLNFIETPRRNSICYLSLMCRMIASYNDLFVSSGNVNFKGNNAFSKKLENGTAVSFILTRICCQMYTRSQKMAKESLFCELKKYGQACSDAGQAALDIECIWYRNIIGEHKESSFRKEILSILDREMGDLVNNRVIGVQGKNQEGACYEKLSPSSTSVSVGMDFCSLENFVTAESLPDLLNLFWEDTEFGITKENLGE
# Experiment: PBM E-score (8-mer binding enrichment) (E-score (-0.5 to 0.5)); higher = stronger / more preferred TF binding
# Details: protein concentration: 100 nM; construct: GST-full length
# Procedure, shortened: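 For each ungapped eight-base word taken together with its reverse complement, the Universal PBM Analysis Suite assigned an E-score. Binding data came from GST-tagged yeast transcription factors, applied at about 100-200 nM, on universal all-10-mer Agilent arrays made double-stranded by primer extension. Fluorescent anti-GST marked bound protein, and scans were normalised with masliner.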
row,Sequence,PBM E-score
1,CAAAACGC,0.0742
2,CGTGTTTA,-0.0463
3,CGCGGACA,0.214
4,CGCTTTAC,-0.137
5,AACGGGGA,-0.0956
6,GCCAAGGA,-0.121
7,GCCTGCGA,-0.223
8,GCAATTGA,0.0871
9,TCATCCAA,0.0123
10,AATGAACT,0.222
11,CTGTTAGC,-0.0437
12,GCGGGAGA,-0.107
13,TGAGTGCA,-0.133
14,AAGAAGGA,-0.197
15,GAGTCAAC,-0.157
16,AAGGATAT,0.0287
17,AATTTTTA,0.217
18,AACACCCG,0.225
19,AATTAGGA,0.0518
20,CCCGCAAG,-0.298
21,ACACCGCA,0.0328
22,ATAAGTAC,-0.0231
23,ACAGAGGC,-0.255
24,CCAAGGCG,-0.0441
25,ATTAAGGG,-0.169

row,Sequence,PBM E-score
1,GACACCGC,-0.0713
2,CGTTTTTC,-0.00305
3,CCGCAGAC,-0.107
4,CTTCACCA,-0.191
5,ACACTCAG,-0.0821
6,AGGAAATA,0.249
7,TGTCAAAA,0.21
8,ACAGTGTC,-0.191
9,AATTGTAT,0.138
10,CACTTCCC,-0.0654
11,ATTTTGGA,0.148
12,AAAAAAGG,0.18
13,CTCTAGGA,-0.234
14,CTGAAATC,0.0356
15,GAAAATCA,0.172
16,CAGGACAA,0.219
17,CCGGCCGC,0.304
18,CCGTACGA,-0.0091
19,CCCACGTA,-0.255
20,AGTCATGC,-0.136
21,CCAATCAC,-0.167
22,TCTAACAA,0.0476
23,TCCCGGCA,0.256
24,CCACCCCC,-0.336
25,CTTGTATA,0.0185

row,Sequence,PBM E-score
1,CAAGAAAG,0.0559
2,AGGAACCA,0.096
3,AGTACTGC,-0.177
4,ATGTGCTG,0.14
5,GTCTGTGA,-0.098
6,AGCCCTGA,-0.113
7,AGGAATCA,0.078
8,AATTCTAT,0.0873
9,CCTTTGCG,-0.109
10,ACTGAATC,-0.0361
11,GAGTCGTA,-0.0554
12,GGCCCGTA,0.0235
13,GTTGTGTA,-0.0255
14,CGGCCACC,0.154
15,GCATCGAC,-0.0882
16,TAACCCCA,-0.345
17,CCAATGAC,-0.176
18,GATCGTTA,-0.154
19,CCAGGCGA,-0.22
20,ATCAGCTG,0.115
21,CTTCCGAA,0.39
22,CACCAGAA,-0.147
23,TCCTAAAA,0.0838
24,GATGACGA,-0.022
25,AGGACACA,0.165

row,Sequence,PBM E-score
1,AATTGCTG,0.0973
2,ATACCAAC,0.00336
3,ACACGGCT,0.171
4,CCCTTGCA,-0.372
5,GGAGACGA,0.159
6,GCCATGAA,-0.00087
7,CATACGCG,-0.0259
8,ATGCGGCC,0.109
9,GTCAGACA,-0.0984
10,ATATTTAG,0.202
11,GATCCGGA,0.395
12,ATAGCATC,-0.0575
13,ATACGGCG,0.203
14,AATTTCGC,0.146
15,CGCCAGAA,0.0364
16,CATTCCAA,-0.0772
17,TTAGGAAA,0.146
18,CTAGAAGA,0.103
19,AAGCTCCA,-0.17
20,ACCGGCCC,0.13
21,TGGGGCAA,-0.286
22,AGGAATAC,-0.0183
23,CGGGTATC,0.0139
24,GCGGTCGA,0.15
25,GGGTTATA,-0.298

# Random excerpt: 5 entries already listed
row,Sequence,PBM E-score
21,CTTCCGAA,0.39
24,GATGACGA,-0.022
22,ATAAGTAC,-0.0231
16,TAACCCCA,-0.345
6,GCCATGAA,-0.00087

# Further entries follow.

row,Sequence,PBM E-score
1,ATACACAG,-0.219
2,CATAAAGC,-0.101
3,CATTAAGA,-0.0926
4,GGGCTCTA,-0.0148
5,ACATAAAG,0.197
6,AGCAGCCC,-0.222
7,TATGCAGA,-0.075
8,CGATACCG,-0.0503
9,AAGTAGGA,-0.0944
10,ACAGGTTC,-0.233
11,CCCATCGA,-0.0649
12,GTAAGTGA,0.141
13,CGATATGA,0.0643
14,ACTTGCTA,-0.0452
15,GGTCGGAA,0.225
16,AGGACGTA,-0.212
17,ATGCACAG,-0.216
18,AAAACAGG,-0.126
19,CAGTCAAC,-0.0922
20,CAGTTTTC,0.136
21,AGCCTGAG,-0.074
22,AATGTCAA,0.0179
23,AGACAACC,0.182
24,CATACTCC,0.00805
25,AGTTGCTG,-0.06

row,Sequence,PBM E-score
1,CGCATAAG,-0.0386
2,AAGATACG,0.16
3,GCTGAAAC,0.138
4,AATGCTGG,-0.0289
5,AGACTCGC,-0.14
6,ACGGGGCA,-0.23
7,GACAGCTA,-0.081
8,ATGAGTCG,-0.267
9,ATTCTGGG,-0.0625
10,CCCGCGGA,0.257
11,AAACCAAG,0.051
12,AATTGCTA,0.0206
13,CTCCTCCC,-0.151
14,ACCCCCGT,-0.281
15,CCTTACGC,-0.176
16,AATTACTA,0.198
17,CATATTAC,0.121
18,CCTATGTA,-0.171
19,AGCAGGTA,-0.147
20,GTATAGAC,-0.0957
21,ACCAAGGC,-0.0881
22,CAAACCGG,0.206
23,CGCAAACG,0.0372
24,CGGCGCTA,0.162
25,GCAGATGA,-0.138

# Copied from the list.
# PBM E-score, AGACTCGC is entered as -0.14
# PBM E-score, ACCCCCGT is entered as -0.281
# PBM E-score, AAGATACG is entered as 0.16
# PBM E-score, AAACCAAG is entered as 0.051

# Additional results follow.

row,Sequence,PBM E-score
1,ATTAAATA,0.22
2,CCTGCAAC,-0.075
3,ATACAGGC,-0.194
4,ATTATCAG,0.0899
5,AGATGTAC,-0.127
6,AGGGTAAC,-0.294
7,CGATGAGA,0.0795
8,ATCACACC,0.0117
9,CATGTGGA,-0.173
10,GGGCTCAC,-0.31
11,ACCAGGTC,-0.132
12,AGACGAAC,0.0501
13,CTCTACAC,-0.181
14,ATCCGGGA,0.258
15,GCTCTGAA,-0.0396
16,AGGATATC,-0.0241
17,AGTGTCCG,0.176
18,ATAGTCAC,-0.0148
19,AAGGTCCC,-0.242
20,ACGGTAAC,0.221
21,ACGAATCT,0.0333
22,GCCACAAA,0.0617
